Among all 360,000 compounds or so, about 780 (0.22%) were called active. Inconclusive results, whose numbers are uncertain, are shown with a selection of clear calls. No stated cut-off is given here; in the data, active means inhibition above about 35% (passing the limit was not always enough); inconclusive means no clear call, values can overlap the other calls.
These molecules were tested on Botulinum neurotoxin type F light chain protease (Clostridium botulinum) (assay: BoNT/F light chain protease inhibitors, primary screen, biochemical, flow cytometry, MLPCN library (AID 588497; further: plate controls were buffer without enzyme for full effect and enzyme alone for no effect)). Conditions: Multiplex microsphere protease cleavage assay, at 10 µM, hits give high values.

| SMILES | inhibition |
| --- | --- |
| COc1cc(/C=C2\N=C(C)OC2=O)cc(OC)c1OC | inactive: 4.4% |
| COc1ccc(NC(=O)c2cc(S(=O)(=O)N3CCCC3)oc2C)cc1 | inconclusive: 38% |
| COc1ccc(CN2C(=O)CSC2c2ccncc2)cc1 (stereo unspecified) | inconclusive: 15.5% |
| Cc1scc(C(=O)NNC(=S)NCC2CCCO2)c1C (stereo unspecified) | inconclusive: -42.5% |
| O=C(O)C(=O)Nc1nc(-c2ccc3c(c2)OCCO3)cs1 | inconclusive: -2.8% |
| CCOC(=O)c1c(C)[nH]c(C(=O)CN2C(=O)NC(C)(c3ccc4ccccc4c3)C2=O)c1C (stereo unspecified) | inactive: -2.1% |
| CCn1nc(C)c(Br)c1-c1nc(-c2ccc(C)cc2)no1 | inconclusive: -16.4% |
| CC1=NN(c2ccccc2)C(=O)/C1=C/c1cn(C)c2ccccc12 | inconclusive: 42.4% |
| COc1ccc(Cc2nc3ccc(C(=O)NCCCSC)cc3o2)cc1OC | inconclusive: 3.3% |
| O=C(O)C1OC2OC3(CCCCC3)OC2C2OC3(CCCCC3)OC12 (stereo unspecified) | active: 35.7% |
| CCCCCCC(=O)Nc1c2c(nc3ccccc13)N(C)CC2 | inactive: 17.5% |
| Clc1ccc(-n2nnnc2-c2cnc3ccc(Cl)cc3c2-c2ccccc2)cc1 | inconclusive: -1.5% |
| CN1C(=O)C(=Cc2sc(=O)n(-c3ccccc3)c2N(C)C)C(=O)N(C)C1=O | inconclusive: 0.8% |
| COC(=O)c1cnn(-c2ccccc2)c1C(OC)OC | inconclusive: 12.5% |
| CCc1c(C)sc(NC(=O)C2CC(c3c(F)cccc3Cl)=NO2)c1C#N (stereo unspecified) | inconclusive: 12.8% |
| O=C(OCC#CCSc1nnc(-c2ccc([N+](=O)[O-])cc2)o1)c1cccs1 | inconclusive: -16.9% |
| CCOC(=O)C1CCN(Cc2ccc(C(=O)OC)cc2)CC1 | inactive: -2.6% |
| COc1ccc(C(=O)Nc2ccc3nc(C)c(C)nc3c2)cc1 | inactive: 6.2% |
| O=C(OCn1nnc2ccccc2c1=O)c1cccc(S(=O)(=O)N2CCOCC2)c1 | inactive: -9.8% |
| CC(=O)Nc1ccc(SC(C)C(=O)NC(N)=O)cc1 (stereo unspecified) | inconclusive: -4.1% |
| CCCCNC(=O)CC1SC(=NCC)N(CC)C1=O (stereo unspecified) | inconclusive: 14.1% |
| COCCn1c(SCc2ccc(C)cc2)nc2c1c(=O)[nH]c(=O)n2C | inconclusive: 2.9% |
| O=C(NN1CCOCC1)c1cc(-c2ccc(Cl)c(Cl)c2)nc2ccccc12 | inactive: -14.8% |
| COc1ccc(CN(C)CC2CCCN(CCc3ccc(F)cc3)C2)c(OC)c1OC (stereo unspecified) | inconclusive: -38.9% |
| O=C(Nc1ccc(Cl)cc1)Nc1cccc2nsnc12 | inconclusive: -9.4% |
| Cc1ccc(S(=O)(=O)N2CCCCC2)cc1NC(=O)c1nn(C)c(=O)c2ccccc12 | inactive: 8% |

Molecules shown so far that contain a thiophene ring, fused or not:

| SMILES | inhibition |
| --- | --- |
| Cc1scc(C(=O)NNC(=S)NCC2CCCO2)c1C (stereo unspecified) | inconclusive: -42.5% |
| CCc1c(C)sc(NC(=O)C2CC(c3c(F)cccc3Cl)=NO2)c1C#N (stereo unspecified) | inconclusive: 12.8% |
| O=C(OCC#CCSc1nnc(-c2ccc([N+](=O)[O-])cc2)o1)c1cccs1 | inconclusive: -16.9% |

Reference: PubChem BioAssay AID588497 (NMMLSC, 2011)
